PubChem BioAssay AID504774 – Drosophila RNAi Screening Center | 2011

- Screen: 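Fly genes whose loss alters survival after alkylation damage to DNA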 (primary screen)
- Cells: Drosophila Kc167 cells
- Knock-down reagent: long dsRNA against Drosophila genes, about 0.25 µg dsRNA per well
- Duration: about 6 days: 3 days knock-down, then 3 days with or without MMS
- Treatment: methyl methanesulphonate 0.004% (w/v) for 3 days after knock-down
- Measurement: 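ATP-dependent luminescence as a measure of live cells in MMS-exposed wells, quantile normalised within each plate, with replicate values also given as a mean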
- Direction: mean viability with MMS and viability with MMS: higher = more surviving cells after MMS
In all, the deposit lists about 23,000 reagents; shown is an unselected part of those with a known target gene and a result. 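Values are quantile-normalised luminescence on an arbitrary scale; higher means more cells surviving MMS.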 Reagents against one gene are numbered here. A plus sign joins genes that one reagent is predicted to hit.

no.	target gene	reagent	mean viability with MMS	viability with MMS, replicate 1	viability with MMS, replicate 2
1	CG5805	1	3.71e6	4.14e6	4.23e6
2	CG13010	1	3.45e6	3.90e6	3.89e6
3	CG10920	1	3.43e6	3.71e6	4.07e6
4	gkt (glaikit)	1	3.64e6	4.08e6	4.14e6
5	CG5498	1	3.60e6	4.06e6	4.11e6
6	CG7920	1	3.61e6	3.99e6	4.19e6
7	CG7920	2	3.53e6	3.97e6	4.07e6
8	east (enhanced adult sensory threshold)	1	3.35e6	3.77e6	3.82e6
9	CG5810	1	3.42e6	3.86e6	3.93e6
10	CG5810	2	3.55e6	4.03e6	4.00e6
11	Stt3A	1	3.51e6	4.02e6	3.92e6
12	CG7156	1	3.58e6	4.03e6	4.09e6
13	CG18190	1	3.49e6	4.07e6	3.85e6
14	nahoda	1	3.58e6	4.06e6	4.06e6
15	nahoda	2	3.79e6	4.44e6	4.38e6
16	CG4830	1	3.43e6	3.90e6	3.92e6

Quoted from above for reference:
no.	target gene	reagent	mean viability with MMS	viability with MMS, replicate 1	viability with MMS, replicate 2
12	CG7156	1	3.58e6	4.03e6	4.09e6
13	CG18190	1	3.49e6	4.07e6	3.85e6

The results go on.
no.	target gene	reagent	mean viability with MMS	viability with MMS, replicate 1	viability with MMS, replicate 2
17	slam (slow as molasses)	1	3.42e6	4.08e6	3.64e6
18	Eaat2 (Excitatory amino acid transporter 2)	1	3.83e6	4.37e6	4.22e6
19	Eaat2 (Excitatory amino acid transporter 2)	2	3.73e6	4.30e6	4.19e6
20	pps (protein partner of snf)	1	3.26e6	3.74e6	3.82e6
21	Cpsf6 (Cleavage and polyadenylation specific factor 6)	1	3.37e6	3.80e6	3.90e6
22	CG9143	1	3.43e6	3.90e6	3.89e6
23	LeuRS (Leucyl-tRNA synthetase)	1	3.31e6	3.55e6	3.86e6
24	RpS19b (Ribosomal protein S19b)	1	3.36e6	3.72e6	3.81e6
25	Cpr92F (Cuticular protein 92F)	1	3.63e6	4.13e6	4.10e6
26	mRpL40 (mitochondrial ribosomal protein L40)	1	3.66e6	4.12e6	4.10e6
27	vnc + CG42455	1	3.31e6	3.75e6	3.80e6
28	Fbxl4 (F box and leucine-rich-repeat gene 4)	1	3.65e6	4.08e6	4.19e6
